Results published in the supplement of paper PMC10849652.
This is one part of the list.

By UniProt entry, the sequences of proteins in these tests, tags left out. Where a name states a change or a piece, a line headed by the entry shows the natural chain unless it says otherwise.
UniProt P62820, whole entry, looked up: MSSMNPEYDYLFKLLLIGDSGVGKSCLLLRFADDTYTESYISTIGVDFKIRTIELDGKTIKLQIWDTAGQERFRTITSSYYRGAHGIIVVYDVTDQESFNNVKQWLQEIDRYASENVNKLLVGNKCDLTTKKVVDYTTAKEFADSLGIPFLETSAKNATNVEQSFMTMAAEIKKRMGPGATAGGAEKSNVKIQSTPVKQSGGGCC
UniProt Q9UI14, whole entry, looked up: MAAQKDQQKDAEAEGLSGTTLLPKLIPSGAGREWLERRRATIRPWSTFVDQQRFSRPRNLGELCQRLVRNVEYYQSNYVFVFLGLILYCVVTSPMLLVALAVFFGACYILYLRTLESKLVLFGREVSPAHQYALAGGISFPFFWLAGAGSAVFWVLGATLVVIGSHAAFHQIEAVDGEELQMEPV
UniProt P11233: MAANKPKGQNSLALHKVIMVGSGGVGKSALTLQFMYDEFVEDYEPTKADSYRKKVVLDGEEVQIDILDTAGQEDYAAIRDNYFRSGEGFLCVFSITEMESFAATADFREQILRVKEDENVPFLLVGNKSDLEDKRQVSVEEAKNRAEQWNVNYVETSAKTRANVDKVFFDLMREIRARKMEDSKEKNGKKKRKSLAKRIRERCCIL
UniProt P11234: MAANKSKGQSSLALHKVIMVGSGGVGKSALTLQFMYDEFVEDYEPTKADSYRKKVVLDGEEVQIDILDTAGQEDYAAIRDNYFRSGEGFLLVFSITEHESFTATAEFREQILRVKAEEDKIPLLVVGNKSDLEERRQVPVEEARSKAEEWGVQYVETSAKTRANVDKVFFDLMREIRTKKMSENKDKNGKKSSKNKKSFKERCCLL
UniProt Q9BRP8: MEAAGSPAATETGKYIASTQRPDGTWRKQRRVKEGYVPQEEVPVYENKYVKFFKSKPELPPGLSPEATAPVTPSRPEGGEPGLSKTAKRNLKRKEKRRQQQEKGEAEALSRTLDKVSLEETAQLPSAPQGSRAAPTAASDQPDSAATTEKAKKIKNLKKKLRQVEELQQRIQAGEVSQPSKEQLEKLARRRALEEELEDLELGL
UniProt Q92930: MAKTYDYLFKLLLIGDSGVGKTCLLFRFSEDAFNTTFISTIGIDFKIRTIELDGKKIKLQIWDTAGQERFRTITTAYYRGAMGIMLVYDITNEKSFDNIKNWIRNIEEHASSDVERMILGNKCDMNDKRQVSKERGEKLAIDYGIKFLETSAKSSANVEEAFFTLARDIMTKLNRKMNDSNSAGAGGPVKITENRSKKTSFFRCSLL
UniProt P52306: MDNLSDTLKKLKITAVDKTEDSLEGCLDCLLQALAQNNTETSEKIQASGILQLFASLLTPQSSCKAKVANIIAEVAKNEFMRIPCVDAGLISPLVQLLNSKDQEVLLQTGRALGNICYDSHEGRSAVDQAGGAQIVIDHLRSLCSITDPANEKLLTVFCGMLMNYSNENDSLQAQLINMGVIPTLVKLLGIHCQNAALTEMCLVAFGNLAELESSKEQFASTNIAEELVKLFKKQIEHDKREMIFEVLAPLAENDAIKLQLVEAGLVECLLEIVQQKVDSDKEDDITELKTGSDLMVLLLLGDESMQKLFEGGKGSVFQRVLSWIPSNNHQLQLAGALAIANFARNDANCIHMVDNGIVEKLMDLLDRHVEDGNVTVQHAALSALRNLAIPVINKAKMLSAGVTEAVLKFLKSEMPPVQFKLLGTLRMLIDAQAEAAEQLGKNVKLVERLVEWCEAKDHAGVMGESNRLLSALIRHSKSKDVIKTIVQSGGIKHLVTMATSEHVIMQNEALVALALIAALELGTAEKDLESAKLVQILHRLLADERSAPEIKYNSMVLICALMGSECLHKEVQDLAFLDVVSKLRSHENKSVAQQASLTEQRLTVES
UniProt Q8WZA2: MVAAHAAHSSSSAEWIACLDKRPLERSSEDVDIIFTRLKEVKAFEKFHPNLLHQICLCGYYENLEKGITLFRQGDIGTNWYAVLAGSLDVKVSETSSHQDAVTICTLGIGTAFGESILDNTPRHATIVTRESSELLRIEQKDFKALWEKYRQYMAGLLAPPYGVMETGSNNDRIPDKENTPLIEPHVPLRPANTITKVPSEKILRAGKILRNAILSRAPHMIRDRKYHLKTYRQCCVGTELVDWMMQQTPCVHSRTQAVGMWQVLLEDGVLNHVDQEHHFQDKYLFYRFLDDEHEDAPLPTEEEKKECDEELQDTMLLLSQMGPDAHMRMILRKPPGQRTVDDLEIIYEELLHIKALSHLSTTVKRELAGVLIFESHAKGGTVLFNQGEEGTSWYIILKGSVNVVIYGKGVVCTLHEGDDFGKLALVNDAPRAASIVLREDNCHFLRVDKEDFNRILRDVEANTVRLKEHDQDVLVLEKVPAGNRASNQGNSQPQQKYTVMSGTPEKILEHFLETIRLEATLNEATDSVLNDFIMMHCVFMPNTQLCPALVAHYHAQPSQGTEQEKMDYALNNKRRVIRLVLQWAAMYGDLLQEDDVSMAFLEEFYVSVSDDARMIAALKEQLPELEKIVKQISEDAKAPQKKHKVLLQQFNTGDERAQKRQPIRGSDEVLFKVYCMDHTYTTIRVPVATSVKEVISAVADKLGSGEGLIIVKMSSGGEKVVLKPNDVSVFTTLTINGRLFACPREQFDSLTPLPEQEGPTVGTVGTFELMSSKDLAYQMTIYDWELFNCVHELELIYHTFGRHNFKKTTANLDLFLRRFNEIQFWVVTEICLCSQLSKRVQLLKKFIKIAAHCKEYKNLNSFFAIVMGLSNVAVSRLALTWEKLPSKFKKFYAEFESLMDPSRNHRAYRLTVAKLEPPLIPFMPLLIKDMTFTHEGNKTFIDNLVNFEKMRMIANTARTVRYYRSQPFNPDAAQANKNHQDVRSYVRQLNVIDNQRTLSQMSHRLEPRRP
UniProt Q9H6Z4: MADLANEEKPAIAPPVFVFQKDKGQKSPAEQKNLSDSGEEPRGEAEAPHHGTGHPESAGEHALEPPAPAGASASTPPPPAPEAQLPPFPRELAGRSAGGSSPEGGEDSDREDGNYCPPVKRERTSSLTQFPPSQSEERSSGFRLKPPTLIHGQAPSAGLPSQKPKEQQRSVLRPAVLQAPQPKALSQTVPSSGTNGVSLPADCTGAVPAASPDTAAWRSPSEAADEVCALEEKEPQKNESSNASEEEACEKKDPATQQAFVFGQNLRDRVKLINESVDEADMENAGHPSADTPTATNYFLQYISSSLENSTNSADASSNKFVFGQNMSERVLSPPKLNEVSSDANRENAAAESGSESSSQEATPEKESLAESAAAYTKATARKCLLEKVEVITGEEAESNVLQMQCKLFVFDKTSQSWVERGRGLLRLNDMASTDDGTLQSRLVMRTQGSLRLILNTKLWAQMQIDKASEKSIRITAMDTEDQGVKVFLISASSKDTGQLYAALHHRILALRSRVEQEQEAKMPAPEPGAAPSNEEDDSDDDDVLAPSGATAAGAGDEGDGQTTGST
UniProt Q15042: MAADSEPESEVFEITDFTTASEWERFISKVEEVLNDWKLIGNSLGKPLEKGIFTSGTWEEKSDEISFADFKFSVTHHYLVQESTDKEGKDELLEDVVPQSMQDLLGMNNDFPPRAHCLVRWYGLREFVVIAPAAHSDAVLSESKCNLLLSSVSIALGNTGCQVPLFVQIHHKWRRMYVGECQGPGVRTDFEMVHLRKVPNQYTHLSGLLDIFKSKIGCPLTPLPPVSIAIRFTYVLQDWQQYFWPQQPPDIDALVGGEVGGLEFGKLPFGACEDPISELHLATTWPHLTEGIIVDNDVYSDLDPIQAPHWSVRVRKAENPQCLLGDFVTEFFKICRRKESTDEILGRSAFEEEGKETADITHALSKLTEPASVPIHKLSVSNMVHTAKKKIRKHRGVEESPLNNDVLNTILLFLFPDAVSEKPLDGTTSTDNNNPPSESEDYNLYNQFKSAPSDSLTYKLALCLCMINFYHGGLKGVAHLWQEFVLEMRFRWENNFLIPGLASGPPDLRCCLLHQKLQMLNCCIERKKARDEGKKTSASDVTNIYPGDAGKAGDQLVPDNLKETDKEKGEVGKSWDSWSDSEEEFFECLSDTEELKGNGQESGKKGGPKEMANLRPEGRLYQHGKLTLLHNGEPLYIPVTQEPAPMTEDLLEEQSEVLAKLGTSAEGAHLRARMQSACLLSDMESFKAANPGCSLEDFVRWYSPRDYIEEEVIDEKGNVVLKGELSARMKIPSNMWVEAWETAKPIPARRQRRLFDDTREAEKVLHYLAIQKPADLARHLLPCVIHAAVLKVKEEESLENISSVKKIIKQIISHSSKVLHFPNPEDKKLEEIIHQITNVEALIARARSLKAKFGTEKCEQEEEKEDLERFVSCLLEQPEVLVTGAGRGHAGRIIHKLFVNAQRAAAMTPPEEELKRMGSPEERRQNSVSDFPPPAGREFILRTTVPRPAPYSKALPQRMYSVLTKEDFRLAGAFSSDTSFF
UniProt Q9NRW1: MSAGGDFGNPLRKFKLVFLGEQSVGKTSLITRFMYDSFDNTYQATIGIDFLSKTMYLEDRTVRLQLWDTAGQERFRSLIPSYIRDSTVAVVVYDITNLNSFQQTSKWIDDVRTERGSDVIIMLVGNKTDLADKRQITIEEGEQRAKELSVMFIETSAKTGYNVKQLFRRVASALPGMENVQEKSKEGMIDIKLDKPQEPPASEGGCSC

Legend:
Assay in all cases: log2 fold change, soluble protein after heating vs DMSO (PISA); higher = thermal stabilisation; K562 lysate, 10 uM; active = over 0.2 and 3.5 SD of the protein, either way, in both replicates (recomputed)
ibrutinib = compound: C=CC(=O)N1CCC[C@@H](n2nc(-c3ccc(Oc4ccccc4)cc3)c3c(N)ncnc32)C1 [ibrutinib]
Summary of the method: (§1)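 Values give the log-two fold change in thermal stability against solvent controls, from duplicates. Crude K562 extract at 1 mg/mL protein, made by dounce homogenisation in PBS pH 7.4 with 1 mM MgCl2, was treated with 10 μM compound for 30 min. After 3 min heating across 48°C-58°C, aliquots were pooled, adjusted to 0.5% NP-40 at 4°C and centrifuged at 21,000xg for 90 min. The supernatant was measured by TMTpro 16plex LC-MS/MS with channel sums equalised.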

[1] = compound: CC(=O)c1cnc2ccc(-c3cc(Cl)c(O)c(Cl)c3)nc2c1N[C@H]1CC[C@H](CN(C)C)CC1
Summary of the method: as §1

ralimetinib = compound: CC(C)(C)Cn1c(N)nc2ccc(-c3[nH]c(C(C)(C)C)nc3-c3ccc(F)cc3)nc21 [ralimetinib]
Summary of the method: as §1

[2] = compound: CC(C)(O)CC(=O)NCCn1ccc2ncnc(Nc3ccc(Oc4cccc(C(F)(F)F)c4)c(Cl)c3)c21
Summary of the method: as §1

[3] = compound: CC(C)C1=C2N=C(C=C(N2N=C1)NCC3=CC=CC=C3)NCCCCCCN
Summary of the method: as §1

[4] = compound: CC1=C(C(CC(=O)N1)C2=CC=C(C=C2)C(F)(F)F)C(=O)NC3=C(C=C4C(=C3)C=NN4)F
Summary of the method: as §1

[5] = compound: CC1=C(C2=C(C=C1)C(=O)C3=CC=CC=C3N2CCCN)C
Summary of the method: as §1

[6] = compound: CC1=C(C=C(C=C1)NC(=O)C2=CC(=CC=C2)C(C)(C)C#N)NC3=CC4=C(C=C3)N=CN(C4=O)C
Summary of the method: as §1

[7] = compound: CC1=C(C=C(C=C1)NC(=O)C2=CC(=CC=C2)N(C)C)NC(=O)C3=CC=C(C=C3)O
Summary of the method: as §1

[8] = compound: CC1=CC=C(C=C1)SC2=C3C=C(SC3=CN=C2)C(=O)N
Summary of the method: as §1

vemurafenib = compound: CCCS(=O)(=O)Nc1ccc(F)c(C(=O)c2c[nH]c3ncc(-c4ccc(Cl)cc4)cc23)c1F [vemurafenib]
Summary of the method: as §1

[9] = compound: CCCS(=O)(=O)Nc1ccc(F)c(C(=O)c2c[nH]c3ncc(Cl)cc23)c1F
Summary of the method: as §1

barasertib = compound: CCN(CCCOc1ccc2c(Nc3cc(CC(=O)Nc4cccc(F)c4)[nH]n3)ncnc2c1)CCOP(=O)(O)O [barasertib]
Summary of the method: as §1

[10] = compound: CC[C@@H]1C(=O)N(C)c2cnc(Nc3ccc(C(=O)NC4CCN(C)CC4)cc3OC)nc2N1C1CCCC1
Summary of the method: as §1

volasertib = compound: CC[C@@H]1C(=O)N(C)c2cnc(Nc3ccc(C(=O)N[C@H]4CC[C@H](N5CCN(CC6CC6)CC5)CC4)cc3OC)nc2N1C(C)C [volasertib]
Summary of the method: as §1

[11] = compound: CCn1c(C(=O)N(C2CC2)C2CC2)cc2c3c(ncn3C)c(Nc3cc(C)n(C)n3)nc21
Summary of the method: as §1

[12] = compound: CCn1cc(-c2ccnc3[nH]c(-c4cccc(CN(C)C)c4)cc23)c(-c2ccc(NC(=O)N(C)C)cc2)n1
Summary of the method: as §1

[13] = compound: CN1CCC(CNc2ccc3ncc(-c4cccc(OC(F)(F)F)c4)n3n2)CC1
Summary of the method: as §1

saracatinib = compound: CN1CCN(CCOc2cc(OC3CCOCC3)c3c(Nc4c(Cl)ccc5c4OCO5)ncnc3c2)CC1 [saracatinib]
Summary of the method: as §1

sotrastaurin = compound: CN1CCN(c2nc(C3=C(c4c[nH]c5ccccc45)C(=O)NC3=O)c3ccccc3n2)CC1 [sotrastaurin]
Summary of the method: as §1

Measured: log2 fold change

RAB1A (UniProt P62820)
inactive: ibrutinib -0.012 | [1] 0 | ralimetinib 0 | [2] 0.03 | [3] 0.011 | [4] 0.053 | [5] 0.026 | [6] 0 | [7] -0.01 | [8] 0 | vemurafenib -0.025 | [9] -0.016 | barasertib 0.019 | [10] 0.001 | volasertib -0.002 | [11] 0.01 | [12] 0.062 | [13] -0.033 | saracatinib -0.018 | sotrastaurin 0.023

RABAC1 (UniProt Q9UI14)
inactive: ibrutinib 0.027 | [1] 0.007 | ralimetinib -0.017 | [2] -0.029 | [3] 0 | [4] 0.028 | [5] -0.01 | [6] 0.118 | [7] -0.084 | [8] -0.024 | vemurafenib 0.026 | [9] 0.028 | barasertib -0.005 | [10] 0.175 | volasertib 0.001 | [11] -0.099 | saracatinib 0.005 | sotrastaurin 0.206

RALA (UniProt P11233)
active: [12] -0.289
inactive: ibrutinib 0.009 | [1] -0.01 | ralimetinib 0.006 | [2] -0.05 | [3] 0.034 | [4] -0.002 | [5] -0.001 | [6] 0.057 | [7] -0.048 | [8] -0.023 | vemurafenib 0.033 | [9] 0.004 | barasertib -0.001 | [10] 0.029 | volasertib 0.014 | [11] -0.023 | [13] 0.169 | saracatinib -0.021 | sotrastaurin -0.027

RALB isoform 2 (UniProt P11234)
inactive: ibrutinib -0.006 | [1] 0.088 | ralimetinib -0.01 | [2] -0.021 | [3] 0.004 | [4] -0.028 | [5] 0 | [6] -0.019 | [7] -0.029 | [8] 0.029 | vemurafenib 0.026 | [9] -0.03 | barasertib 0.049 | [10] 0.033 | volasertib -0.007 | [11] 0.068 | [12] -0.145 | [13] 0.151 | saracatinib -0.001 | sotrastaurin -0.002

PYM1 (UniProt Q9BRP8)
inactive: ibrutinib 0.036 | [1] -0.003 | ralimetinib -0.003 | [2] -0.028 | [3] 0.017 | [4] -0.008 | [5] 0.003 | [6] 0.045 | [7] -0.028 | [8] 0.007 | vemurafenib -0.033 | [9] 0.002 | barasertib 0.025 | [10] 0.062 | volasertib 0.024 | [11] 0 | [12] -0.017 | [13] 0.006 | saracatinib 0 | sotrastaurin 0.001

RAB8B (UniProt Q92930)
inactive: ibrutinib -0.03 | [1] -0.018 | ralimetinib -0.035 | [2] -0.013 | [3] -0.003 | [4] 0.051 | [5] -0.001 | [6] 0.01 | [7] 0.099 | [8] -0.06 | vemurafenib -0.137 | [9] 0 | barasertib -0.036 | [10] 0.028 | volasertib -0.036 | [11] 0.007 | [12] 0.252 | [13] -0.142 | saracatinib 0.08 | sotrastaurin -0.024

RAP1GDS1 isoform 5 (UniProt P52306)
inactive: ibrutinib 0.018 | [1] 0.018 | ralimetinib 0.026 | [2] -0.005 | [3] -0.009 | [4] -0.019 | [5] -0.006 | [6] -0.031 | [7] 0.02 | [8] -0.003 | vemurafenib 0.024 | [9] 0.003 | barasertib 0.047 | [10] -0.004 | volasertib -0.005 | [11] 0.002 | [12] -0.109 | [13] 0.045 | saracatinib 0.008 | sotrastaurin 0.031

PYCR1 (UniProt J3QKT4)
inactive: ibrutinib 0.034 | [1] 0.007 | ralimetinib -0.058 | [2] -0.063 | [3] -0.006 | [4] -0.183 | [5] -0.145 | [6] -0.075 | [7] 0.015 | [8] -0.108 | vemurafenib 0.263 | [9] 0.068 | barasertib 0.147 | [10] 0.43 | volasertib 0.004 | [11] -0.287 | saracatinib 0.251 | sotrastaurin -0.104

RAPGEF4 (UniProt Q8WZA2)
active: [12] -0.887
inactive: ibrutinib -0.026 | [1] -0.129 | ralimetinib -0.001 | [2] -0.328 | [3] 0.044 | [5] 0.046 | [6] 0.442 | [7] -0.004 | [8] -0.166 | vemurafenib 0.157 | [9] 0.077 | barasertib 0.022 | [10] 0.174 | volasertib 0.049 | [11] -0.259 | [13] 0.391 | saracatinib 0.037 | sotrastaurin 0.001

RANBP3 isoform 2 (UniProt Q9H6Z4)
inactive: ibrutinib 0.07 | [1] 0.027 | ralimetinib 0.067 | [2] -0.016 | [4] 0.008 | [5] 0.013 | [6] 0.01 | [7] 0.075 | [8] -0.001 | vemurafenib 0.017 | [9] -0.01 | barasertib -0.096 | [10] 0.134 | volasertib -0.011 | [11] -0.076 | saracatinib -0.087 | sotrastaurin -0.054

2 successive records from above, quoted:
RAPGEF4 (UniProt Q8WZA2)
active: [12] -0.887
inactive: ibrutinib -0.026 | [1] -0.129 | ralimetinib -0.001 | [2] -0.328 | [3] 0.044 | [5] 0.046 | [6] 0.442 | [7] -0.004 | [8] -0.166 | vemurafenib 0.157 | [9] 0.077 | barasertib 0.022 | [10] 0.174 | volasertib 0.049 | [11] -0.259 | [13] 0.391 | saracatinib 0.037 | sotrastaurin 0.001

RANBP3 isoform 2 (UniProt Q9H6Z4)
inactive: ibrutinib 0.07 | [1] 0.027 | ralimetinib 0.067 | [2] -0.016 | [4] 0.008 | [5] 0.013 | [6] 0.01 | [7] 0.075 | [8] -0.001 | vemurafenib 0.017 | [9] -0.01 | barasertib -0.096 | [10] 0.134 | volasertib -0.011 | [11] -0.076 | saracatinib -0.087 | sotrastaurin -0.054

(list continues)

RAB3GAP1 (UniProt Q15042)
inactive: ibrutinib 0.001 | [1] -0.011 | ralimetinib 0.024 | [2] -0.003 | [3] 0.013 | [4] -0.011 | [5] 0 | [6] 0.01 | [7] 0.005 | [8] -0.006 | vemurafenib 0.028 | [9] 0.027 | barasertib 0.008 | [10] -0.056 | volasertib -0.063 | [11] 0.007 | [12] -0.034 | [13] -0.088 | saracatinib -0.001 | sotrastaurin -0.007

RAB6B (UniProt Q9NRW1)
inactive: ibrutinib 0.106 | [1] 0.026 | ralimetinib 0.013 | [2] 0.005 | [3] -0.009 | [4] 0.031 | [5] 0.008 | [6] -0.01 | [7] -0.016 | [8] 0.031 | vemurafenib -0.035 | [9] -0.069 | barasertib 0.081 | [10] -0.021 | volasertib 0.021 | [11] 0.026 | [12] -0.014 | [13] 0.017 | saracatinib 0.009 | sotrastaurin 0.033
